We go through one molecule from publication PMC5131891, “Structural Insights into Streptococcal Competence Regulation by the Cell-to-Cell Communication System ComRS” (PLoS Pathogens, 2016).

These are yes or no findings as the source states them, for the method shown. Binding calls can cover weak binding; strength is not graded here.

The test deals with ComR from Streptococcus thermophilus LMD-9 (ComR-StreptagII, wild type) (Streptococcus thermophilus LMD-9). Description: crystal structure; ComR/XIP/DNA ternary complex: 175 μM ComR, 1 mM XIP, 175 μM 20-bp dsDNA (ComR-box of PcomX); 30% PEG 550 MME, 0.1 M MgCl2, 0.05 M Tris-HCl pH 8.5; 18°C; both purified.

Regarding LPYFAGCL [XIP octapeptide (ComS 17-24, LPYFAGCL) from Streptococcus thermophilus LMD-9], the binding result is “binds”.
